Results deposited as PubChem BioAssay AID1259405 (NCATS, 2018)

- Aim: 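Knock-downs that lift recombinant protein yield in hamster ovary cells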 (primary screen)
- System: Chinese hamster CHO-K1 ovary cells with stable secreted eGFP expression
- Reagents: single siRNA against mouse genes, 0.8 pmol siRNA per well (2 µl of 400 nM stock)
- Duration: 3 days
- Measured: 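Percent of the per-plate non-targeting control median for intracellular GFP per well by laser scanning cytometry and for cell viability by ATP luminescence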
- Reading the numbers: GFP, % of control: higher = more GFP per well, higher productivity; viability (ATP), % of control: higher = more viable cells (more ATP)
- Rule for the call: 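Called active when intracellular GFP, relative to negative control, is at or above 120%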
Shown is one part, drawn at random, of about 50,000 deposited reagents. In the full data, about 4,000 (8%) got an active call. 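Mouse siRNA library applied to hamster cells; one well for each siRNA.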 Unmarked entries are inactive. The numbers tell different reagents against one gene apart.

With knock-down of Setd6 #1, the screen gave GFP, % of control 74.6; viability (ATP), % of control 87.
After knock-down of Setd6 #2, the record shows GFP, % of control 67.2; viability (ATP), % of control 78.8.
After knock-down of Setd6 #3, the screen gave GFP, % of control 74.7; viability (ATP), % of control 56.3.
Knock-down of Ceacam9 #1 resulted in: GFP, % of control 57.2; viability (ATP), % of control 58.8.
Against Ceacam9 #2 the deposit lists GFP, % of control 54.5; viability (ATP), % of control 77.2.
Against Ceacam9 #3, the values are GFP, % of control 81.1; viability (ATP), % of control 74.4.
Against Slc25a14 #1, the values are GFP, % of control 104; viability (ATP), % of control 98.5.
Slc25a14 #2 gave GFP, % of control 80.9; viability (ATP), % of control 89.2.
For Slc25a14 #3 the deposit lists GFP, % of control 68.8; viability (ATP), % of control 89.4.
Against Mxd4 #1 the deposit lists GFP, % of control 122 (active); viability (ATP), % of control 86.5.
Mxd4 #2 gave GFP, % of control 79.4; viability (ATP), % of control 77.9.
Mxd4 #3 showed GFP, % of control 86.5; viability (ATP), % of control 100.
Depletion of Clca3a2 #1 resulted in: GFP, % of control 107; viability (ATP), % of control 105.
Clca3a2 #2 scored GFP, % of control 133 (active); viability (ATP), % of control 129.
For Clca3a2 #3, the entry reads GFP, % of control 95.7; viability (ATP), % of control 57.3.
For Reep2 #1 the deposit lists GFP, % of control 111; viability (ATP), % of control 89.2.
Depletion of Reep2 #2 resulted in: GFP, % of control 61.4; viability (ATP), % of control 74.
Silencing of Reep2 #3 resulted in: GFP, % of control 63.5; viability (ATP), % of control 87.4.

2 entries from above in another layout:
Mxd4 #1
- GFP, % of control: 122 (active)
- viability (ATP), % of control: 86.5

Mxd4 #2
- GFP, % of control: 79.4
- viability (ATP), % of control: 77.9
